Experimental data: the supplement of paper PMC8007513
The other results are listed elsewhere or left out. Most values come without repeats; read them as rough.

Tested on: Saccharomyces cerevisiae BY4743
Assay: growth (OD600) with compound + IPBC relative to untreated control; higher = less growth inhibition
Conditions: compound concentration: 133 uM; IPBC concentration: 0.5 ug/ml; 20 h
Protocol: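 NMCCC compounds (133 uM) combined with IPBC (0.5 ug/ml) against Saccharomyces cerevisiae BY4743 in YPD, 96-well plates. Growth was read as OD600 at 20 h and expressed as % of the untreated control. Single pass.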

Structure (SMILES) | growth
Cc1ccnc(NC(=O)c2ccc(C)cc2Cl)c1 + CCCCNC(=O)OCC#CI [3-iodo-2-propynyl butylcarbamate (IPBC)] | 103%
CC(C(=O)NC(=O)NC(C)(C)C)N1CCC(c2nc3ccccc3s2)CC1 (centres undefined) + CCCCNC(=O)OCC#CI [3-iodo-2-propynyl butylcarbamate (IPBC)] | 98.2%
CCn1c(SCC(=O)N(C)CCOc2ccc(Br)cc2)nnc1C1CC1 + CCCCNC(=O)OCC#CI [3-iodo-2-propynyl butylcarbamate (IPBC)] | 96%
Cc1ccc2c(c1)N(C(=O)Nc1ccc(Br)cc1)CCO2 + CCCCNC(=O)OCC#CI [3-iodo-2-propynyl butylcarbamate (IPBC)] | 71.2%
Cc1ccc2cc(C(=O)NCCN3CCS(=O)(=O)CC3)c(C)nc2c1 + CCCCNC(=O)OCC#CI [3-iodo-2-propynyl butylcarbamate (IPBC)] | 106%
Cc1ccc2cc(CN(CC(C)C)C(=O)c3ccco3)c(O)nc2c1 + CCCCNC(=O)OCC#CI [3-iodo-2-propynyl butylcarbamate (IPBC)] | 110%
CC(NC(=O)CSc1ncc(-c2ccccc2)nn1)c1ccccc1 (centres undefined) + CCCCNC(=O)OCC#CI [3-iodo-2-propynyl butylcarbamate (IPBC)] | 69.2%
CC(=O)c1c(C)[nH]c(C(=O)C(C)Oc2ccc(F)c(Cl)c2)c1C (centres undefined) + CCCCNC(=O)OCC#CI [3-iodo-2-propynyl butylcarbamate (IPBC)] | 102%
O=C(c1cc(Cl)ccn1)N1CCOc2ccccc21 + CCCCNC(=O)OCC#CI [3-iodo-2-propynyl butylcarbamate (IPBC)] | 104%
CCC(=O)N[C@@H](Cc1ccccc1)C(=O)Nc1cc(C)on1 + CCCCNC(=O)OCC#CI [3-iodo-2-propynyl butylcarbamate (IPBC)] | 96.1%
COC(CN(C)C(=O)c1cc2c(C)nc3ccccc3c2o1)OC + CCCCNC(=O)OCC#CI [3-iodo-2-propynyl butylcarbamate (IPBC)] | 82.2%
COC(=O)c1cc(OC)c(OC)cc1NS(=O)(=O)c1ccccc1C(F)(F)F + CCCCNC(=O)OCC#CI [3-iodo-2-propynyl butylcarbamate (IPBC)] | 98.7%
CC(C)c1csc(NC(=O)c2cnn(-c3ccccc3)c2)n1 + CCCCNC(=O)OCC#CI [3-iodo-2-propynyl butylcarbamate (IPBC)] | 106%
CCOC(=O)c1cc(C)n(-c2ccc(C(=O)N3CCN(C(=O)OCC)CC3)cc2)c1C + CCCCNC(=O)OCC#CI [3-iodo-2-propynyl butylcarbamate (IPBC)] | 104%
COc1cc(Br)c(CC(=O)Nc2cc(C)ccn2)cc1OC + CCCCNC(=O)OCC#CI [3-iodo-2-propynyl butylcarbamate (IPBC)] | 90.1%
CCOC(=O)CNC(=O)C1CCCc2c1[nH]c1ccc(Cl)cc21 (centres undefined) + CCCCNC(=O)OCC#CI [3-iodo-2-propynyl butylcarbamate (IPBC)] | 97.4%
COc1ccc(-c2noc(CC(=O)N(CCC#N)c3ccccc3)n2)cc1 + CCCCNC(=O)OCC#CI [3-iodo-2-propynyl butylcarbamate (IPBC)] | 104%
CC(=O)N1\N=C(/OC12CCCC2)C3=CC=C(C=C3)C(C)(C)C + CCCCNC(=O)OCC#CI [3-iodo-2-propynyl butylcarbamate (IPBC)] | 103%
CS(=O)(=O)c1ccc(-c2cccc(NC(=O)C3CCCO3)c2)nn1 (centres undefined) + CCCCNC(=O)OCC#CI [3-iodo-2-propynyl butylcarbamate (IPBC)] | 100%
CCOC(=O)C/1=C(\C)OC(=O)/C(=C1)NC(=O)C2=CC=CC=C2OC + CCCCNC(=O)OCC#CI [3-iodo-2-propynyl butylcarbamate (IPBC)] | 84.3%
O=C([O-])c1cc(O)nc2ccc(S(=O)(=O)Nc3ccc(F)cc3)cc12 + CCCCNC(=O)OCC#CI [3-iodo-2-propynyl butylcarbamate (IPBC)] | 86.9%
COc1ccc(Cc2nnc(SCC(N)=O)n2-c2ccccc2)cc1Cl + CCCCNC(=O)OCC#CI [3-iodo-2-propynyl butylcarbamate (IPBC)] | 102%
Cc1cc(C(=O)COc2ccc(NC(=O)c3ccco3)cc2)c(C)n1C + CCCCNC(=O)OCC#CI [3-iodo-2-propynyl butylcarbamate (IPBC)] | 86.5%
CCOC(=O)C(Cc1ccccc1)NS(=O)(=O)c1ccc(NC(C)=O)cc1 (centres undefined) + CCCCNC(=O)OCC#CI [3-iodo-2-propynyl butylcarbamate (IPBC)] | 90.4%
CCN(CC)CCNC(=O)c1cnn(-c2cccc(C)c2)c1-n1cccc1 + CCCCNC(=O)OCC#CI [3-iodo-2-propynyl butylcarbamate (IPBC)] | 103%
CC(C)(C)NC(=O)CN1CCCN(C(=O)CCc2ccc(S(=O)(=O)N3CCOCC3)cc2)CC1 + CCCCNC(=O)OCC#CI [3-iodo-2-propynyl butylcarbamate (IPBC)] | 105%
Cc1cc(C)cc(NC(=O)CSc2nc(O)c3c(n2)CCCC3)c1 + CCCCNC(=O)OCC#CI [3-iodo-2-propynyl butylcarbamate (IPBC)] | 80.7%
CNS(=O)(=O)c1cc(C(=O)N2CCN(S(=O)(=O)c3cc(OC)ccc3OC)CC2)n(C)c1 + CCCCNC(=O)OCC#CI [3-iodo-2-propynyl butylcarbamate (IPBC)] | 97.7%
COC(=O)C[C@H](NC(=O)N1CCSCC1c1ccc(OC)cc1)C(=O)OC (some centres undefined) + CCCCNC(=O)OCC#CI [3-iodo-2-propynyl butylcarbamate (IPBC)] | 97.9%

Rewritten with tabs: part of the list above.
Structure (SMILES)	growth
Cc1ccc2cc(C(=O)NCCN3CCS(=O)(=O)CC3)c(C)nc2c1 + CCCCNC(=O)OCC#CI [3-iodo-2-propynyl butylcarbamate (IPBC)]	106%
Cc1ccc2cc(CN(CC(C)C)C(=O)c3ccco3)c(O)nc2c1 + CCCCNC(=O)OCC#CI [3-iodo-2-propynyl butylcarbamate (IPBC)]	110%
